Some entries share one result that the patent states for a list of compounds.
Key:
Cochliobolus miyabeanus = assay: Cochliobolus test (rice)/protective; details: protective, active compound concentration 250 ppm, evaluation 4 days after inoculation
Venturia inaequalis = assay: Venturia test (apple)/protective; type: in vivo; details: protective, active compound concentration 100 ppm, evaluation 10 days after inoculation
Septoria tritici = Septoria tritici test (wheat)/protective; type: in vivo; details: protective, active compound concentration 500 ppm, evaluation 21 days after inoculation
Leptosphaeria nodorum = Leptosphaeria nodorum test (wheat)/protective; type: in vivo; details: protective, active compound concentration 500 ppm, evaluation 7-9 days after inoculation
Rhizoctonia solani = assay: Rhizoctonia test (rice)/protective; type: in vivo; details: protective, active compound concentration 250 ppm, evaluation 4 days after inoculation
Sphaerotheca fuliginea = assay: Sphaerotheca test (cucumber)/protective; type: in vivo; details: protective, active compound concentration 500 ppm, evaluation 7 days after inoculation
Botrytis cinerea = assay: Botrytis test (bean)/protective; type: in vivo; details: protective, active compound concentration 100 ppm, evaluation 2 days after inoculation

Question: With Clc1cnc(Nc2cccc(C3OCCO3)c2)nc1NC1CC1 [Example 1, 5-Chloro-N^4-cyclopropyl-N^2-[3-(1,3-dioxolan-2-yl)phenyl]pyrimidine-2,4-diamine] as the compound, how does the efficacy (Cochliobolus miyabeanus) read?
Answer: ≥ 80%

Question: What about the efficacy (Venturia inaequalis) of the same compound?
Answer: ≥ 70%

Question: What about the efficacy (Septoria tritici) of the same compound?
Answer: ≥ 70%

Question: What about the efficacy (Leptosphaeria nodorum) of the same compound?
Answer: ≥ 70%

Question: And the efficacy (Rhizoctonia solani)?
Answer: ≥ 80%

Question: What about the efficacy (Sphaerotheca fuliginea) of the same compound?
Answer: ≥ 70%

Question: What about the efficacy (Botrytis cinerea) of the same compound?
Answer: ≥ 70%

Question: Clc1cnc(Nc2cccc(C3OCCCO3)c2)nc1NC1CC1 [Example 5, 5-Chloro-N^4-cyclopropyl-N^2-[3-(1,3-dioxan-2-yl)phenyl]pyrimidine-2,4-diamine] was tested. Which efficacy (Cochliobolus miyabeanus) did it give?
Answer: ≥ 80%

Question: What about the efficacy (Venturia inaequalis) of the same compound?
Answer: ≥ 70%

Question: What about the efficacy (Septoria tritici) of the same compound?
Answer: ≥ 70%

Question: What about the efficacy (Leptosphaeria nodorum) of the same compound?
Answer: ≥ 70%

Question: What about the efficacy (Rhizoctonia solani) of the same compound?
Answer: ≥ 80%

Question: And the efficacy (Sphaerotheca fuliginea)?
Answer: ≥ 70%

Question: And the efficacy (Botrytis cinerea)?
Answer: ≥ 70%

Question: Which results are given for CC1(c2cccc(Nc3ncc(Cl)c(NC4CC4)n3)c2)OCCO1 [Example 12, 5-Chloro-N^4-cyclopropyl-N^2-[3-(2-methyl-1,3-dioxolan-2-yl)phenyl]pyrimidine-2,4-diamine]?
Answer: efficacy (Cochliobolus miyabeanus): ≥ 80%; efficacy (Venturia inaequalis): ≥ 70%; efficacy (Septoria tritici): ≥ 70%; efficacy (Leptosphaeria nodorum): ≥ 70%; efficacy (Rhizoctonia solani): ≥ 80%; efficacy (Sphaerotheca fuliginea): ≥ 70%; efficacy (Botrytis cinerea): ≥ 70%

Question: With CC1(c2ccc(Nc3ncc(Cl)c(NC4CC4)n3)cc2)OCCO1 [Example 27, 5-Chloro-N^4-cyclopropyl-N^2-[4-(2-methyl-1,3-dioxolan-2-yl)phenyl]pyrimidine-2,4-diamine] as the compound, how does the efficacy (Leptosphaeria nodorum) read?
Answer: ≥ 70%

Question: What about the efficacy (Sphaerotheca fuliginea) of the same compound?
Answer: ≥ 70%

Question: With Clc1cnc(Nc2cccc(C3SCCCS3)c2)nc1NC1CC1 [Example 35, 5-Chloro-N^4-cyclopropyl-N^2-[3-(1,3-dithian-2-yl)phenyl]pyrimidine-2,4-diamine] as the compound, how does the efficacy (Sphaerotheca fuliginea) read?
Answer: ≥ 70%

Question: With CCN(CC)CC1COC(c2cccc(Nc3ncc(Cl)c(NC4CC4)n3)c2)O1 (centres unmarked) [Example 40, 5-Chloro-N^4-cyclopropyl-N^2-(3-{4-[(diethylamino)methyl]-1,3-dioxolan-2-yl}phenyl)-pyrimidine-2,4-diamine] as the compound, how does the efficacy (Leptosphaeria nodorum) read?
Answer: ≥ 70%

Question: How did the efficacy (Cochliobolus miyabeanus) turn out when Clc1cnc(Nc2cccc(C3OCCS3)c2)nc1NC1CC1 (centres unmarked) [Example 46, 5-Chloro-N^4-cyclopropyl-N^2-[3-(1,3-oxathiolan-2-yl)phenyl]pyrimidine-2,4-diamine] was run?
Answer: ≥ 80%

Question: And the efficacy (Leptosphaeria nodorum)?
Answer: ≥ 70%

Question: What about the efficacy (Rhizoctonia solani) of the same compound?
Answer: ≥ 80%

Question: What about the efficacy (Sphaerotheca fuliginea) of the same compound?
Answer: ≥ 70%
